Experimental data: US9326968B2, “Composition for enhancing immunity containing compounds represented by chemical formulas 1-8 or sophora flavescens extract as active ingredient” (Korea Research Institute of Bioscience and Biotechnology, priority 2010, dated 2016)
Some of these results come from one statement about several compounds together.

What was measured:
IRF3 = IRF3 activity/phosphorylation in THP-1 cells, western blot; type: cell-based, human; conditions: pre-treated at 10 μM
IFN-β = IFN-β expression in THP-1 cells, Real-time PCR; type: cell-based, human; conditions: pre-treatment with 10 μM

C=C(C)C(CC=C(C)C)Cc1c(O)cc(O)c2c1OC(c1ccc(O)cc1O)CC2=O (stereo not drawn) [Formula 2, 5,7,2′,4′-tetrahydroxy-8-lavandulylflavanone]
phosphorylation of IRF3 (IRF3): increased | IFN-β expression (IFN-β): increase

C=C(C)C(CC=C(C)C)Cc1c(O)cc(OC)c2c1OC(c1ccc(O)cc1O)CC2=O (stereo not drawn) [Formula 3, 5-methoxy-7,2′,4′-trihydroxy-8-lavandulylflavanone]
phosphorylation of IRF3 (IRF3): increased | IFN-β expression (IFN-β): increase

COc1cc(O)c(CC=C(C)C)c2c1C(=O)CC(c1ccc(O)cc1)O2 (stereo not drawn) [Formula 4, 5-methoxy-7,4′-dihydroxy-8-prenylflavanone]
phosphorylation of IRF3 (IRF3): increased | IFN-β expression (IFN-β): increase

C=C(C)C(CC=C(C)C)Cc1c(O)cc(O)c2c1OC(c1ccccc1O)CC2=O (stereo not drawn) [Formula 6, 5,7,2′-trihydroxy-8-lavandulylflavanone]
phosphorylation of IRF3 (IRF3): increased | IFN-β expression (IFN-β): increase

C=C(C)C(CCC(C)(C)O)Cc1c(O)cc(O)c2c1OC(c1ccccc1O)CC2=O (stereo not drawn) [Formula 7, 5,7,2′-trihydroxy-8-(5-hydroxy-2-isoprenyl-5-methyl-hexyl)-flava-none]
phosphorylation of IRF3 (IRF3): increased | IFN-β expression (IFN-β): increase

C=C(C)C(CC=C(C)C)Cc1c(O)cc(OC)c2c1OC(c1ccc(O)cc1OC)CC2=O (stereo not drawn) [Formula 8, 5,2′-methoxy-7,4′-dihydroxy-8-lavandulylflavanone]
phosphorylation of IRF3 (IRF3): increased | IFN-β expression (IFN-β): increase
